Results taken from PMC4493090.

Sequences of proteins named here, by UniProt entry; tags and fusion partners are left off.
UniProt O14744: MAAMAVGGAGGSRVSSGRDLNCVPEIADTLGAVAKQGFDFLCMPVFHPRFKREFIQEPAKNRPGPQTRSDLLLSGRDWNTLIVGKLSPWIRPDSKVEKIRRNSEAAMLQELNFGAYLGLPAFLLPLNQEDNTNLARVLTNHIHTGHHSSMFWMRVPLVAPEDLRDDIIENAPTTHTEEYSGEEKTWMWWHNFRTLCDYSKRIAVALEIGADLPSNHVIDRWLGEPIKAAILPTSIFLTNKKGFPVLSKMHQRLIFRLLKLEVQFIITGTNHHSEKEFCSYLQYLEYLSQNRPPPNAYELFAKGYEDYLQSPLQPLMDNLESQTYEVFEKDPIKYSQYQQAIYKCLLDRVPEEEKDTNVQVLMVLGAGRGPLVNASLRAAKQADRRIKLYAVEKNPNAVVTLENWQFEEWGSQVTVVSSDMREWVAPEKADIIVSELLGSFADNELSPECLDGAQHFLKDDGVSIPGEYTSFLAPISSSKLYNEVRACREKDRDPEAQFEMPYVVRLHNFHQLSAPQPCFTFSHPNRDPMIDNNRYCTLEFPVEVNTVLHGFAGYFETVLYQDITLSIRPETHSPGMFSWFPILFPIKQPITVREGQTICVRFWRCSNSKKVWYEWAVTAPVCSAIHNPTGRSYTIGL

Molecular target: FLAG-Glis3-ΔC480-HA (mouse) (UniProt F6SGN4)
Test: affinity purification with mass spectrometry; tandem FLAG/HA affinity purification of FLAG-Glis3-ΔC480-HA from lysates of stable HEK293-F cells (anti-M2 FLAG agarose, then anti-HA magnetic beads); SDS-PAGE, GeLC-MS; empty vector cells as control

With “protein arginine methyltransferase 5 (Prmt5) (from UniProt O14744 1-637) (enzyme)” the binding was “binds”.

No constants are given. Whether binding was seen depends on the method and setting. Binding seen in cells or lysates may run through a third protein. Here binding means that the protein was enriched with, or labelled near, the bait; the list need not be complete.
